The values below come from US20190255086A1, “Compositions and Methods for Treating an Infection” (CMPD Licensing, LLC, priority 2015, published 2019).

For the experiment, the system named is Mycoplasma pneumoniae. Kind of experiment: Expected efficacy of anti-bacterial agents against various bacteria (Tables 5 and 6). The following applies: Gram: n/a.

Turning to `O=C(O)c1cn(C2CC2)c2cc(N3CCNCC3)c(F)cc2c1=O` [Ciprofloxacin], the “Efficacy of various antibiotic agents” value is reported as “yes”.
